This is an account of results in patent US20120237518A1.

Assay [1] addresses Mutant B, Trop-2 extracellular region lacking domain I and domain II, fused to FLAG tag and Fc (human). As to the kind of experiment: Western blot, KM4590 as primary antibody, Mutant B in lane 3, non-reducing and reducing [a]. For orientation: A western blot detects proteins with antibodies after separation by electrophoresis.
Assay [2] has as its target Mutant A, Trop-2 extracellular region lacking only domain I, fused to FLAG tag and Fc (human). As to the kind of experiment: Western blot, KM4590 as primary antibody, Mutant A in lane 2 [a].
Assay [3] deals with Mutant C, Trop-2 extracellular region lacking full length of domain I and domain II and part of domain III, fused to FLAG tag and Fc (human). The assay can be described thus: Western blot, cAR47A6.4.2 as primary antibody, Mutant C in lane 4, non-reducing and reducing [b].

No constants are given. Whether binding was seen depends on the method and setting.

B1: anti-Trop-2 human chimeric antibody KM4590 (antibody, human IgG1, V domains shown)
VH: QVQLQQSGPELVRPGTSVRISCKASGYTFTIYWLGWVKQRPGHGLEWIGNIFPGSAYINYNEKFKGKATLTADTSSSTAYMQLSSLTSEDSAVYFCAREGSNSGYWGQGTTLTVSS
VL: DIVMTQSPSSLSVSAGEKVTMTCKSSQSLLNSGNQQNYLAWYQQKPGQPPKLLIYGASTRESGVPDRFTGSGSGTDFTLTINSVQAEDLAVYYCQSDHIYPYTFGGGTKLEIK
B1: the binding result in assay [1] and in assay [2] was “no binding” each time.

B2: cAR47A6.4.2, human IgG1 chimeric antibody of anti-Trop-2 mouse monoclonal antibody AR47A6.4.2 (antibody, V domains shown)
VH: QIQLVQSGPELKKPGETVKISCKASGYTFTNYGMNWVKQAPGKGLKWMGWINTKTGEPTYAEEFKGRFAFSLETSASTAYLQINNLKKEDTATYFCGRGGYGSSYWYFDVWGAGTTVTVSS
VL: DIVMTQSHKFMSTSVGDRVSITCKASQDVSIAVAWYQQKPGQSPKVLIYSASYRYTGVPDRFTGSGSGTDFTFTISRVQAEDLAVYYCQQHYITPLTFGAGTKLELK
For B2, the binding entry in assay [3] is “no binding”.
